From PubChem BioAssay AID1487 (National Center for Advancing Translational Sciences (NCATS), 2009)
The other results are listed elsewhere or left out. The main result of the screen is listed elsewhere. These columns were measured beside it and carry no call. The list favours compounds with an active or inconclusive main result. Potencies come from curve fits of mixed quality, noted in brackets.

Assay: qHTS Assay for Modulators of Lamin A Splicing
Conditions: HeLa LMNA splicing GFP/RFP minigene ratio, 48 h
In short: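 S3 HeLa cells stably expressing lamin A-EGFP splicing minigene plus DsRed2, 600 cells/well, 48 h compound exposure at 37C. Laser-scanning cytometry; analysed as GFP (500-530 nm)/RFP (575-640 nm) total intensity ratio; 0.5% DMSO vehicle.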

[1] = measured here: GFP splicing reporter channel
[2] = measured here: RFP viability control channel

Row | Compound | AC50 [1] | AC50 [2]
1 | Cc1cccc(NC(=O)CSc2nc3ccc(NC(=O)COc4ccc(Cl)cc4)cc3s2)c1 | 14.1 µM [falling, single point] | 35.5 µM [falling, single point]
2 | C=CCNC(=O)C(C#N)c1nc2ccccc2nc1N1CCCCCC1 (stereo not given) |  | 11.2 µM [rising, single point]
3 | Cc1cccc(NC(=O)c2cc3c(=O)n(Cc4ccco4)ccc3nc2C)c1 |  | 11.2 µM [rising, partial curve]
4 | Cc1nn(-c2ccccc2)c2c1N(CC(=O)NCc1ccc(N(C)C)cc1)C(=O)CS2 | 0.01 µM [falling, full curve, poor fit] | 0.316 µM [falling, full curve, poor fit]
5 | COC(=O)c1cn(NC(=O)c2ccc(OC)c([N+](=O)[O-])c2)c(=O)c2ccccc12 | 3.16 µM [falling, full curve, poor fit] | 3.16 µM [falling, partial curve, poor fit]
6 | O=C1C2C3C=CC(C3=C3CCCCC3)C2C(=O)N1Cc1ccccc1 (stereo not given) | 28.2 µM [rising, single point] | 28.2 µM [rising, single point]
7 | CN(c1ncnc2c1c(-c1ccccc1)cn2-c1ccc(F)cc1)C1CCCCC1 |  | 8.91 µM [rising, single point]
8 | Cc1nn(Cc2ccccc2Cl)c2sc(C(=O)OC3CCCC3=O)cc12 (stereo not given) | 22.4 µM [rising, single point] | 22.4 µM [rising, single point]
9 | CC(C)OC(=O)c1cc(NC(=S)Nc2ccc([N+](=O)[O-])cc2)cc(C(=O)OC(C)C)c1 | 11.2 µM [rising, single point] | 20 µM [rising, single point]
10 | O=C(NNc1nc2cc3c(cc2s1)OCO3)c1cccc(F)c1 |  | 35.5 µM [rising, single point]
11 | Cc1cc(SCC(=O)c2cccs2)n2nc(C)c(-c3ccc(Cl)cc3)c2n1 |  | 0.0562 µM [rising, full curve]
12 | O=C(O)[C@@H]1[C@@H]2C[C@H]3c4[nH]c5ccccc5c4CCN3C[C@@H]2CC[C@@H]1O | 0.355 µM [falling, partial curve] | 
13 | CN(CC(=O)Nc1ccc(F)c(F)c1F)c1cnccn1 |  | 2.24 µM [falling, full curve]
14 | CNc1nc(-c2ccc3c(c2)CCN3S(=O)(=O)c2ccccc2)c(C)s1 | 2 µM [falling, full curve] | 15.8 µM [falling, partial curve]
15 | O=C(NCC12CC3CC(CC(C3)C1)C2)c1nn2c(c1Cl)NC(c1ccco1)CC2C(F)(F)F (stereo not given) |  | 0.355 µM [falling, partial curve, poor fit]
16 | COc1ccc(Cn2ccc3nc(C)c(C(=O)Nc4ccc(F)cc4)cc3c2=O)cc1 | 2.51 µM [rising, partial curve] | 3.16 µM [rising, single point]
17 | CC(C)C(C)NC(=O)COc1ccc([N+](=O)[O-])cc1Cl (stereo not given) |  | 17.8 µM [rising, single point]
18 | Nc1nc(Cl)cc(N2CCC(c3cc(-c4ccc(Cl)cc4)n[nH]3)CC2)n1 | 35.5 µM [falling, single point] | 12.6 µM [falling, partial curve]
19 | Cc1noc(/C=C/N(C)C)c1S(=O)(=O)N1CCN(c2ccccc2)CC1 |  | 25.1 µM [rising, single point]
20 | CCSc1nnc(NC(=O)c2cccc(S(=O)(=O)N(C)c3ccc(C)cc3)c2)s1 |  | 12.6 µM [rising, partial curve]
21 | O=C(NC1CCCC1)C(=O)N(Cc1cccnc1)C(C(=O)NCC1CCCO1)c1ccco1 (stereo not given) | 7.08 µM [rising, partial curve, poor fit] | 
22 | O=C(Nc1ccc(Cl)cc1)OCc1cncs1 | 20 µM [rising, partial curve, poor fit] | 22.4 µM [rising, single point]
23 | COc1ccc(N=Nc2ccc(N)nc2N)cc1 | 20 µM [falling, partial curve, poor fit] | 35.5 µM [falling, partial curve, poor fit]
24 | O=C(N/N=C/c1cc2c(cc1Br)OCO2)c1c[nH]c2ccccc12 |  | 0.126 µM [rising, full curve, poor fit]
25 | O=C(O)c1ccccc1Nc1ccccc1 | 0.355 µM [falling, partial curve, poor fit] | 5.62 µM [falling, partial curve, poor fit]
26 | COc1cccc(/C=N/NC(=O)CC(=O)NCCc2ccccc2)c1OC | 0.501 µM [rising, full curve, poor fit] | 
27 | O=C(Nc1cccc(Cl)c1)N1CCN2C(=O)c3ccccc3C12c1ccccc1 (stereo not given) |  | 0.0794 µM [falling, full curve, poor fit]
28 | O=C(COC(=O)c1ccc2[nH]c3c(c2c1)CCCC3)NC1CCS(=O)(=O)C1 (stereo not given) | 7.94 µM [falling, full curve, poor fit] | 3.16 µM [falling, full curve]

Row | Compound | AC50 [1] | AC50 [2]
29 | COC(=O)N1C(/C=C/c2ccc3c(c2)OCO3)=Cc2ccccc2C1CC(C)=O (stereo not given) |  | 0.1 µM [falling, full curve]
30 | O=C(Nc1ccc(Cl)cc1)c1csc(-c2ccncc2)n1 |  | 7.94 µM [falling, partial curve, poor fit]
31 | Cc1csc(NC(=O)c2ccc(C)c(S(=O)(=O)N3CCCCC3)c2)n1 |  | 14.1 µM [rising, single point]
32 | O=C1CCc2cc(S(=O)(=O)NCc3ccc(Cl)cc3)cc3c2N1CC3 | 14.1 µM [falling, partial curve] | 
33 | O=C(c1ccccc1-c1nc(-c2ccc(F)cc2)no1)N1CCCC1 | 11.2 µM [rising, partial curve] | 7.94 µM [rising, partial curve]
34 | COc1cc2c(cc1NC(=O)Nc1ccc(C)cc1)oc1ccccc12 | 35.5 µM [rising, single point] | 35.5 µM [rising, single point]
35 | CCOC(=O)c1cnn(CC2CCCCC2)c1N | 1 µM [rising, partial curve] | 11.2 µM [rising, single point]
36 | Cc1ccccc1CNC(=O)c1ccccc1NC(=O)c1nsc2ccccc12 |  | 8.91 µM [falling, partial curve, poor fit]
37 | O=C(Nc1ccc(Cl)c(C(F)(F)F)c1)C1CCCN(S(=O)(=O)c2cccc3cccnc23)C1 (stereo not given) | 0.00447 µM [falling, full curve, poor fit] | 
38 | Cc1ccc(CNC(=O)c2cc3cc(C)ccc3n2C)cc1 | 2.24 µM [falling, full curve] | 
39 | CC(O)CNc1nc2c(c(=O)n(C)c(=O)n2C)n1CCc1ccccc1 (stereo not given) |  | 35.5 µM [rising, single point]
40 | COc1cccc(Oc2cn[nH]c2-c2ccc(O)cc2O)c1 |  | 3.16 µM [rising, partial curve]
41 | CCOc1ccc(C2c3[nH]c4ccccc4c3CCN2C(=O)CSc2ccccc2)cc1 (stereo not given) |  | 25.1 µM [rising, single point]
42 | Cc1cc([N+](=O)[O-])nn1CC(=O)Nc1ccc(F)cc1 | 0.178 µM [rising, full curve] | 
43 | O=C(Nc1ccc(Cc2ccncc2)cc1)c1cc(F)c(F)cc1Cl | 0.562 µM [rising, full curve] | 
44 | CCCCn1c(=O)[nH]c(=O)c2c1nc(-c1ccccc1F)n2Cc1ccccc1OC | 11.2 µM [falling, partial curve, poor fit] | 8.91 µM [falling, partial curve, poor fit]
45 | CCc1ccc(S(=O)(=O)NCc2cn3c(C)csc3n2)s1 |  | 25.1 µM [rising, single point]
46 | N/C(=N\OC(=O)CCc1ccccc1)c1cccnc1 |  | 0.141 µM [falling, full curve]
47 | CC(C)CC(=O)Nc1ccc(Nc2ccccc2)cc1 |  | 22.4 µM [rising, single point]
48 | O=S(=O)(N/N=C\c1ccc(-c2ccccc2Cl)o1)c1ccccc1 |  | 31.6 µM [rising, single point]
49 | O=C(COc1ccc(Br)cc1Cl)NC(=O)NCc1ccccc1 | 15.8 µM [rising, single point] | 
50 | CCN(CC)C(=O)c1nn(-c2ccccc2)c2c1C1CCC2(C)C1(C)C (stereo not given) | 2.51 µM [rising, partial curve] | 
51 | CCOc1cc(N2CCOCC2)c(OCC)cc1NC(=O)COC(=O)[C@@H]1CCCN1S(=O)(=O)c1ccccc1F |  | 15.8 µM [rising, single point]
52 | Cn1nc([N+](=O)[O-])nc1S(C)(=O)=O | 25.1 µM [falling, single point] | 
53 | Cc1ccc(-c2nnc(N)s2)cc1 | 0.631 µM [falling, full curve, poor fit] | 0.0631 µM [falling, full curve, poor fit]
54 | Nc1cc(=O)[nH]c(SCc2csc(-c3ccccc3)n2)n1 | 7.08 µM [rising, full curve] | 22.4 µM [rising, partial curve]
55 | O=[N+]([O-])c1ccc(N2CCN(S(=O)(=O)c3ccccc3[N+](=O)[O-])CC2)cc1NCc1cccnc1 | 6.31 µM [rising, full curve, poor fit] | 5.01 µM [rising, partial curve]

Looked up above:
AC50 [2] with `CCSc1nnc(NC(=O)c2cccc(S(=O)(=O)N(C)c3ccc(C)cc3)c2)s1` is entered as 12.6 µM [rising, partial curve]
AC50 [1] with `Cc1ccc(CNC(=O)c2cc3cc(C)ccc3n2C)cc1` is entered as 2.24 µM [falling, full curve]
AC50 [1] with `COc1cc2c(cc1NC(=O)Nc1ccc(C)cc1)oc1ccccc12` is entered as 35.5 µM [rising, single point]
